PubChem BioAssay AID652272, Drosophila RNAi Screening Center | 2013
The screen tested about 21,000 reagents; this is an unselected part of those that have a named target and a result. In the full data, 503 (2.4%) were called active. 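Raw plate light values, not normalised; calls rest on replicate z-scores that were not deposited; hits include reporter decreases as well as increases.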 The numbers tell different reagents against one gene apart. Names joined by + are all predicted targets of the reagent. Not given: the amount of reagent, the time to read-out.

Screen: 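Genome-wide knock-down search for components of Hedgehog signalling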 (primary screen)
Cells: Drosophila clone 8 (Cl8) cells
Reagent: long dsRNA against Drosophila genes
Measured: 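Firefly light from a Hedgehog-responsive ptc promoter reporter and Renilla reference light, both read on a plate reader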
Scale: firefly Hh reporter signal: higher = more ptc reporter light; Renilla reference signal: higher = more Renilla control light
Active means: 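Called a hit if the two-replicate mean z-score lies below -2 or above +3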
Calls: active = hit: reporter lowered or raised; inactive = not a hit

The opening 6 records, to show the layout:
| predicted target | dsRNA no. | firefly Hh reporter signal, replicate 1 | firefly Hh reporter signal, replicate 2 | firefly Hh reporter signal, replicate 3 | Renilla reference signal, replicate 1 | Renilla reference signal, replicate 2 | activity call |
| --- | --- | --- | --- | --- | --- | --- | --- |
| dpr6 | 1 | 1.08e5 | 1.95e5 | – | 2876 | 7097 | inactive |
| dpr6 | 2 | 38372 | 53617 | 55494 | 4988 | 3712 | inactive |
| dpr6 | 3 | 6.42e5 | 85580 | – | 3668 | 3668 | inactive |
| CG5846 | 1 | 86016 | 45833 | – | 3396 | 1931 | inactive |
| Slimp | 1 | 51383 | 1.93e5 | – | 13706 | 4385 | inactive |
| Cht2 | 1 | 1.24e5 | 79939 | – | 5570 | 3440 | inactive |

Main list, from the start:
| predicted target | dsRNA no. | firefly Hh reporter signal, replicate 1 | firefly Hh reporter signal, replicate 2 | firefly Hh reporter signal, replicate 3 | Renilla reference signal, replicate 1 | Renilla reference signal, replicate 2 | activity call |
| --- | --- | --- | --- | --- | --- | --- | --- |
| dpr6 | 1 | 1.08e5 | 1.95e5 | – | 2876 | 7097 | inactive |
| dpr6 | 2 | 38372 | 53617 | 55494 | 4988 | 3712 | inactive |
| dpr6 | 3 | 6.42e5 | 85580 | – | 3668 | 3668 | inactive |
| CG5846 | 1 | 86016 | 45833 | – | 3396 | 1931 | inactive |
| Slimp | 1 | 51383 | 1.93e5 | – | 13706 | 4385 | inactive |
| Cht2 | 1 | 1.24e5 | 79939 | – | 5570 | 3440 | inactive |
| Rbcn-3A | 1 | 1.04e5 | 3.51e5 | – | 3512 | 12480 | inactive |
| Lac | 1 | 96459 | 43965 | – | 3782 | 1978 | inactive |
| Gr59b | 1 | 84208 | 54836 | – | 1324 | 4935 | inactive |
| mRpL46 | 1 | 54757 | 36198 | – | 1989 | 3181 | inactive |
| Alms1a | 1 | 59648 | 1.15e5 | – | 2240 | 4361 | inactive |
| Arf6 | 1 | 86640 | 68101 | – | 1858 | 4601 | inactive |
| CG6707 | 1 | 3021 | 44037 | 65209 | 3428 | 4586 | inactive |
| Cpr72Ea | 1 | 1.15e5 | 63811 | – | 4706 | 2533 | inactive |
| CG15056 | 1 | 85253 | 3.67e5 | – | 2672 | 13236 | inactive |
| CG18273 | 1 | 1.07e5 | 3.10e5 | – | 4035 | 13498 | inactive |
| CG18273 | 2 | 1.26e5 | 1.06e5 | – | 2920 | 3850 | inactive |
| bai | 1 | 5.41e5 | 1.43e5 | – | 29224 | 4128 | inactive |
| CG34029 | 1 | 1.31e5 | 2.43e5 | – | 3802 | 11296 | inactive |
| Exn | 1 | 58425 | 71799 | – | 3395 | 3682 | inactive |
| Exn | 2 | 88576 | – | – | 5346 | 2731 | inactive |
| wus | 1 | 87171 | 75467 | – | 1531 | 1846 | inactive |
| CG10132 | 1 | 52739 | 31987 | – | 2579 | 1833 | inactive |
| Tom20 | 1 | 1.48e5 | 88512 | – | 6272 | 4304 | inactive |
| Rab26 | 1 | 61671 | 38756 | – | 2027 | 834 | inactive |
| Rab26 | 2 | 85282 | 93259 | – | 2693 | 2505 | inactive |
| Rab26 | 3 | 92992 | 1.34e5 | – | 2476 | 3782 | inactive |
| CG3198 | 1 | 77372 | 2.30e5 | – | 2957 | 8449 | inactive |
| CG13361 | 1 | 96881 | 2.21e5 | – | 4115 | 8708 | inactive |
| lncRNA:sphinx | 1 | 77928 | 1.77e5 | – | 1691 | 6029 | inactive |
| enok | 1 | 1.45e5 | 1.14e5 | – | 4524 | 3632 | inactive |
| CR18275 + CR18166 + CG32817 | 1 | 6.57e5 | 3.24e5 | – | 34299 | 7129 | inactive |
| OtopLc | 1 | 67607 | 2.19e5 | – | 2304 | 8187 | inactive |
| OtopLc | 2 | 52448 | 1.84e5 | – | 1777 | 7757 | inactive |
| OtopLc | 3 | 64266 | 1.56e5 | – | 1991 | 6339 | inactive |
| kraken | 1 | 1.20e5 | 1.14e5 | – | 2822 | 2632 | inactive |
| CG14017 | 1 | 84828 | 40256 | – | 1792 | 4530 | inactive |
| dpr15 | 1 | 49747 | 2.01e5 | – | 10378 | 4120 | inactive |
| dpr15 | 2 | 80850 | 1.32e5 | – | 2016 | 3241 | inactive |
| dpr15 | 3 | 1.03e5 | 1.43e5 | – | 1620 | 2234 | active |
| CG10077 | 1 | 82000 | 1.10e5 | – | 2987 | 3568 | inactive |
| CG30156 | 1 | 1.56e5 | 2.33e5 | – | 4172 | 9703 | inactive |
| ND-B17 | 1 | 1.12e5 | 63937 | – | 3141 | 5944 | inactive |
| ocm | 1 | 38690 | 36698 | – | 1691 | 1360 | inactive |
| Ugt307A1 | 1 | 1.27e5 | 78641 | – | 3319 | 6086 | inactive |
| Fen1 | 1 | 79510 | 42780 | – | 1228 | 3581 | inactive |
| mib2 | 1 | 73116 | 34112 | – | 3244 | 1691 | inactive |
| CG32087 | 1 | 51468 | 50188 | 49600 | 4661 | 3399 | inactive |
| CG17104 | 1 | 78173 | 61323 | – | 3301 | 2631 | inactive |
| CG42516 + Pbp49 | 1 | 71174 | 38592 | – | 3140 | 1670 | inactive |
| EMC6 | 1 | 5.38e5 | 84231 | – | 26616 | 2528 | inactive |
| CG14969 | 1 | 1.29e5 | 1.20e5 | – | 4852 | 4488 | inactive |
| tgo | 1 | 1.11e5 | 1.01e5 | – | 3872 | 3725 | inactive |
| CG3527 | 1 | 73602 | 1.19e5 | – | 2708 | 5433 | inactive |
| Mmp1 | 1 | 72665 | 41041 | – | 1771 | 3425 | inactive |
| CG17994 | 1 | 1.14e5 | 65533 | – | 3205 | 6624 | inactive |
| Cyp6a19 | 1 | 1.22e5 | 58945 | – | 4801 | 1888 | inactive |
